# Data as given in PubChem BioAssay AID504793 (Drosophila RNAi Screening Center, 2011)
# Screen: 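Whole-genome screen for parts of the DNA damage checkpoint at G2/M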 (primary screen)
# System: Drosophila S2R+ cells
# Reagent: long dsRNA against Drosophila genes, about 0.25 µg dsRNA per well
# Timing: 4 days of dsRNA, then 4 hours of drug before read-out
# Conditions: doxorubicin 0.5 µM for 4 hours to cause double-strand breaks, in cells also given a low, harmless dose of dsRNA against nbs to sensitise the assay
# Measured: 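Per-well count of mitotic cells stained for phospho-histone H3 after doxorubicin exposure, used as mitotic index; counts are raw and not normalised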
# Scale: mitotic cells: higher = more cells in mitosis, weaker G2 arrest
# Active means: 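Genes are called active only when high mitotic counts were reproduced with independent dsRNAs and mitosis was checked for delay without damage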
# Meaning of the calls: active = confirmed in follow-up tests; inactive = not confirmed
# The screen tested about 23,000 reagents; below is an unselected part of those with a known target gene and a result. In the full data, 62 (0.27%) are marked active. 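Calls come from follow-up tests whose scores are not deposited, so confirmed genes may have low counts here; counts are not normalised per plate.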 Raw values vary from plate to plate and are shown uncorrected. The numbers tell different reagents against one gene apart.
Gene,dsRNA no.,"mitotic cells, replicate 1",outcome
Obp19b (Odorant-binding protein 19b),1,8,inactive
Obp19b (Odorant-binding protein 19b),2,10,inactive
Sp212 (Serine-peptidase 212),1,6,inactive
Sp212 (Serine-peptidase 212),2,4,inactive
CG13285,1,6,inactive
Orco (Odorant receptor co-receptor),1,6,inactive
Orco (Odorant receptor co-receptor),2,7,inactive
Rbcn-3A (Rabconnectin-3A),1,18,inactive
Rbcn-3A (Rabconnectin-3A),2,11,inactive
CG1571,1,10,inactive
Teh3 (tipE homolog 3),1,2,inactive
Teh3 (tipE homolog 3),2,6,inactive
CG15529,1,12,inactive
Oseg4 (Outer segment 4),1,6,inactive
Ns3 (Nucleostemin 3),1,10,inactive
Ns3 (Nucleostemin 3),2,4,inactive
eIF4G1 (eukaryotic translation initiation factor 4G1),1,18,active
eIF4G1 (eukaryotic translation initiation factor 4G1),2,16,inactive
Nse1 (Non-SMC element 1),1,9,inactive

Called active (from the list above):
Gene,dsRNA no.,"mitotic cells, replicate 1",outcome
eIF4G1 (eukaryotic translation initiation factor 4G1),1,18,active

Additional reagents follow:
Gene,dsRNA no.,"mitotic cells, replicate 1",outcome
APC7 (Anaphase Promoting Complex subunit 7),1,5,inactive
APC7 (Anaphase Promoting Complex subunit 7),2,6,inactive
Syx7 (Syntaxin 7),1,7,inactive
CG13531,1,6,inactive
GATAd,1,7,inactive
CG15370,1,24,inactive
CG15370,2,7,inactive
Tsp42A (Tetraspanin 42A),1,4,inactive
tty (tweety),1,6,inactive
tty (tweety),2,9,inactive
CG3598,1,6,inactive
CG3598,2,7,inactive
CG11964,1,6,inactive
CG11964,2,2,inactive
glo (glorund),1,4,inactive
glo (glorund),2,5,inactive
CG4066,1,1,inactive
CG4066,2,11,inactive
beta'COP (Coat Protein (coatomer) beta'),1,5,inactive
beta'COP (Coat Protein (coatomer) beta'),2,6,inactive
Arl5 (ADP-ribosylation factor-like 5),1,5,inactive
Arl5 (ADP-ribosylation factor-like 5),2,2,inactive
vrs (versager),1,7,inactive
vrs (versager),2,4,inactive
Actn (alpha actinin),1,13,inactive
Actn (alpha actinin),2,2,inactive
